Source: PMC6506760

Amino acid sequences for entries named in this document (tags omitted).
UniProt P12520: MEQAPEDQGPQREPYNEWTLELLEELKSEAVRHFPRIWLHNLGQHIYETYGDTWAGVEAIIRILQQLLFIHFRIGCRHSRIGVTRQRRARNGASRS
UniProt Q9UHI6: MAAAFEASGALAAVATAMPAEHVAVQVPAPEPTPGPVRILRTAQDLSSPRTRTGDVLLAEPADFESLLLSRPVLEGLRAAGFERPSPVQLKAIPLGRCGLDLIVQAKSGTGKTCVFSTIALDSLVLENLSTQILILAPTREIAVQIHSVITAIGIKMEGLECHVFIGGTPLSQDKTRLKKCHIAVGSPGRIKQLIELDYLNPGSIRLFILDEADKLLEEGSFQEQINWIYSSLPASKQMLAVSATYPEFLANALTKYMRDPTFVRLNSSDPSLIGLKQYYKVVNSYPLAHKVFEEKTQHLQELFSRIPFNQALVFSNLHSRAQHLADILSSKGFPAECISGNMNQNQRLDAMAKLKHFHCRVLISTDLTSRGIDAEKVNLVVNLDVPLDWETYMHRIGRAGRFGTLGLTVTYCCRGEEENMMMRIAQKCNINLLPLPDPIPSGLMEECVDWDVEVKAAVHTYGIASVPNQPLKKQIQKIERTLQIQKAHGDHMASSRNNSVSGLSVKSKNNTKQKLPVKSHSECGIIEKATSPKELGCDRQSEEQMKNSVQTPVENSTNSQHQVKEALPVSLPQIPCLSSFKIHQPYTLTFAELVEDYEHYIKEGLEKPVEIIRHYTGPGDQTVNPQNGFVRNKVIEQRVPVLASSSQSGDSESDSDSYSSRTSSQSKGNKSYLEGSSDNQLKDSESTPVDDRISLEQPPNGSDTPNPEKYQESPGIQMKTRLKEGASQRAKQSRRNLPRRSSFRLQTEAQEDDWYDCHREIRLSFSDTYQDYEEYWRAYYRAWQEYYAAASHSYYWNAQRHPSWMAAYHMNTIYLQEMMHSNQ
UniProt P57678: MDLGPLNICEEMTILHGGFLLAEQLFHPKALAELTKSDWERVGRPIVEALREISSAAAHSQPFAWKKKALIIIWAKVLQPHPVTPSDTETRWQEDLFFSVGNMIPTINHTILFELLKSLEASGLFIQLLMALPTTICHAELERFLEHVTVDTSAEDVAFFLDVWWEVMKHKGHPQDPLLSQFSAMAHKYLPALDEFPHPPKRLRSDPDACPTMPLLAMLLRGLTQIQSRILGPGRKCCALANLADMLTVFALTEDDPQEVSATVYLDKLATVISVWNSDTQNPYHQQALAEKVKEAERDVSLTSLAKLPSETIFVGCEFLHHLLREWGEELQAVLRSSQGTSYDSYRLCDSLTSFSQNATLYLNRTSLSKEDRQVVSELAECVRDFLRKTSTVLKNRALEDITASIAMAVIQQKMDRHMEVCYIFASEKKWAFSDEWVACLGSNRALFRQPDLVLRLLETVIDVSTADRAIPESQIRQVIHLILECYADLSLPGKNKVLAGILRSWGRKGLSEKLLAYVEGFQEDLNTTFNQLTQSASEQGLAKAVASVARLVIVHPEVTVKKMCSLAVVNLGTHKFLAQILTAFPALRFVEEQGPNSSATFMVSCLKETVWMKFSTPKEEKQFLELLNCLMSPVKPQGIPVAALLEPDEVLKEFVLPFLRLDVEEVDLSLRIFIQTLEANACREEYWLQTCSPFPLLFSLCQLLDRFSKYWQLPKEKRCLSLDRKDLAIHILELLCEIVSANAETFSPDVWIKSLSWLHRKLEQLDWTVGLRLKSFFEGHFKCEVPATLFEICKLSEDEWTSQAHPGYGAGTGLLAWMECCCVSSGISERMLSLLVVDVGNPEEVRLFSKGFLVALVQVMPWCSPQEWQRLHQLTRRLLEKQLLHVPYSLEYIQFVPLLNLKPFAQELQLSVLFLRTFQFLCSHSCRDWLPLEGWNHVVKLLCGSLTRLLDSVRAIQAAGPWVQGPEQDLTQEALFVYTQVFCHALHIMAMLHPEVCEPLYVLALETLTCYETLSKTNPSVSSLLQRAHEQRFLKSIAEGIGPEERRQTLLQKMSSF
UniProt Q8NI77: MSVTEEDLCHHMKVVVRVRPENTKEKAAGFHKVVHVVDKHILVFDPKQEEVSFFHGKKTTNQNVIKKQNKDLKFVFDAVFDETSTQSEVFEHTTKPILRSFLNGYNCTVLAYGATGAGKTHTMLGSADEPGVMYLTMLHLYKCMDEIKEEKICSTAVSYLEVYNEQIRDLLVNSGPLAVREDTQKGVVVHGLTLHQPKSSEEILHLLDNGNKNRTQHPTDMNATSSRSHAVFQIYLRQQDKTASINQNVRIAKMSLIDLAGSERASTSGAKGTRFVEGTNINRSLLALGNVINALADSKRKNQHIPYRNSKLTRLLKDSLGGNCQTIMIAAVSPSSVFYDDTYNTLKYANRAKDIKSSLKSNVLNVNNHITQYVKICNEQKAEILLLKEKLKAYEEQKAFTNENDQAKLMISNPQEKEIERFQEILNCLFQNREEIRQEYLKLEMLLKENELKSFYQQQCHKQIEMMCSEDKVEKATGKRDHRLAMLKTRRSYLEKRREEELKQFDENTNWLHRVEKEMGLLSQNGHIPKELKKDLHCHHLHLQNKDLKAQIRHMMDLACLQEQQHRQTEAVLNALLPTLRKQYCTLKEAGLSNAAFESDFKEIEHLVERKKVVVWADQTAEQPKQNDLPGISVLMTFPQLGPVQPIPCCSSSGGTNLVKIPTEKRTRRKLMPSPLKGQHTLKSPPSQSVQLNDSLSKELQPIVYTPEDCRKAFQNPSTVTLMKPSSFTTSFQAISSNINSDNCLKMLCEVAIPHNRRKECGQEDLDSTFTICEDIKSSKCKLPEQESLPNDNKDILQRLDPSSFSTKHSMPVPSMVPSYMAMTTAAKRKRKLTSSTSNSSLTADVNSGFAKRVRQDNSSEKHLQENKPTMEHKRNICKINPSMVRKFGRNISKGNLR
UniProt P52701: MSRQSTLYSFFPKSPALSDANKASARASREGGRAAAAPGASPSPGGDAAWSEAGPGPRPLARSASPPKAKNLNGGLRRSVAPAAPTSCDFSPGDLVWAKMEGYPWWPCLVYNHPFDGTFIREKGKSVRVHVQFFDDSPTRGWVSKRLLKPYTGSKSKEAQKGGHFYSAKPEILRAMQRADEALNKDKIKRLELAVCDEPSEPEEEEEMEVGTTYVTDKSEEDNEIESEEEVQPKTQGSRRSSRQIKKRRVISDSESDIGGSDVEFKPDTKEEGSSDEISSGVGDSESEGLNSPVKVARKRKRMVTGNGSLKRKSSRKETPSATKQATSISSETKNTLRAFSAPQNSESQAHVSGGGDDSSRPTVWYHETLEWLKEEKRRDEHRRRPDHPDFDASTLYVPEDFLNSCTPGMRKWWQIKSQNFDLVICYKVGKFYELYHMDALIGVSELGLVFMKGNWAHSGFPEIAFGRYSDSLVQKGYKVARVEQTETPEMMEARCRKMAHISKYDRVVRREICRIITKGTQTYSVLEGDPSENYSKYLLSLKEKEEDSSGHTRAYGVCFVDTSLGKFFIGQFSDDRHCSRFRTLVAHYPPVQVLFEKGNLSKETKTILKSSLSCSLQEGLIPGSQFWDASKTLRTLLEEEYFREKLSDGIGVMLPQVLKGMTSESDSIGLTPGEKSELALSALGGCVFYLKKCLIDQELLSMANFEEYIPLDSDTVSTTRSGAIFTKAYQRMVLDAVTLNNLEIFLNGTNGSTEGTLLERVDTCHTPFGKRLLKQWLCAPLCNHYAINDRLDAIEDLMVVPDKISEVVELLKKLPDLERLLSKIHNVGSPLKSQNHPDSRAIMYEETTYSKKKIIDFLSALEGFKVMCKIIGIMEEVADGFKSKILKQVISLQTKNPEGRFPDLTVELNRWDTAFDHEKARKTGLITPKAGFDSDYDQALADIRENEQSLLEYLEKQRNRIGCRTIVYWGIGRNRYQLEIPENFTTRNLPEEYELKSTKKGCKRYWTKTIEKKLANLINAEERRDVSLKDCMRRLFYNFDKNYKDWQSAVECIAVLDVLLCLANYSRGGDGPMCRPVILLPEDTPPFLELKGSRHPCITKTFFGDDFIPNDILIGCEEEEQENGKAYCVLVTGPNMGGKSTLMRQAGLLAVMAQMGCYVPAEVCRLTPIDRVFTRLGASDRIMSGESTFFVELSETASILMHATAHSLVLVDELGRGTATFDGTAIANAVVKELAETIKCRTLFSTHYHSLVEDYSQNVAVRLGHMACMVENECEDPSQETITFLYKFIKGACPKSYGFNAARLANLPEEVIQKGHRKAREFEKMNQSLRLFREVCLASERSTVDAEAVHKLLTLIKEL
UniProt Q16637: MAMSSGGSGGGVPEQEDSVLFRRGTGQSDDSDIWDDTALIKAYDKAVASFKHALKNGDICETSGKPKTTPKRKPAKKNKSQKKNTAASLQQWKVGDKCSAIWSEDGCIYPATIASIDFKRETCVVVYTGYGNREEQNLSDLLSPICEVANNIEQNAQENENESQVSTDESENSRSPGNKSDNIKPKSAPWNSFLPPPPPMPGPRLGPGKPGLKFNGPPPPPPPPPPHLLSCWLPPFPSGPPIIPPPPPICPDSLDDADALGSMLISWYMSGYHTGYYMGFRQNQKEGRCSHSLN
UniProt Q14586: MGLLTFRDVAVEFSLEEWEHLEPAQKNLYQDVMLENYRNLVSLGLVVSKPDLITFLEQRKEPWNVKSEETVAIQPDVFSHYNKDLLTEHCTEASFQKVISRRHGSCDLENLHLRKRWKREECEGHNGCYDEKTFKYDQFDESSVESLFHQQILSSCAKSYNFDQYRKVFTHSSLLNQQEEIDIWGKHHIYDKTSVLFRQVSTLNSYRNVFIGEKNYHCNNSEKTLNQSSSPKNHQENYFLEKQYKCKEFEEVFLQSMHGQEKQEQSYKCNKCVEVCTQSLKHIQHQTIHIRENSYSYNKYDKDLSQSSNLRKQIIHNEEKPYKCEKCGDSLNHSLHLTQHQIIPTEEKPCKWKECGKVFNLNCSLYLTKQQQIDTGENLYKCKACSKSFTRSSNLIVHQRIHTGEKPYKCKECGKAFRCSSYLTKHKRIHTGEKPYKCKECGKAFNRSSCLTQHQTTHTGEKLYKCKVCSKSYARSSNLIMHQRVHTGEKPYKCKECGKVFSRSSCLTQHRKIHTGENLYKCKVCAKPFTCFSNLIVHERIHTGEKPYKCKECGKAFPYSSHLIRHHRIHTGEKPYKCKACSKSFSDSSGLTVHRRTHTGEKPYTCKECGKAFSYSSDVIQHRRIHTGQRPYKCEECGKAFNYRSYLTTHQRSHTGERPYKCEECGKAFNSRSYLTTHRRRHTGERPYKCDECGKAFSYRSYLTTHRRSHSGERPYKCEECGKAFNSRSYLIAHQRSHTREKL

B1: BBX (protein, UniProt Q8WY36 1-941)
chain: MKGSNRNKDHSAEGEGVGKRPKRKCLQWHPLLAKKLLDFSEEEEEEDEEEDIDKVQLLGADGLEQDVGETEDDESPEQRARRPMNAFLLFCKRHRSLVRQEHPRLDNRGATKILADWWAVLDPKEKQKYTDMAKEYKDAFMKANPGYKWCPTTNKPVKSPTPTVNPRKKLWAFPSDSSRDLPSPKKAKTEEMPQLNFGMADPTQMGGLSMLLLAGEHALGTPEVSSGTCRPDVSESPELRQKSPLFQFAEISSSTSHSDASTKQCQTSALFQFAEISSNTSQLGGAEPVKRCGKSALFQLAEMCLASEGMKMEESKLIKAKESDGGRIKELEKGKEEKEIKMEKTDETRLQKEAEFEKSAKENLRDSKELRNFEALQIDDIMAIKMEDPKEIRKEELEEDHKCSHFPDFSYSASSKIIISDVPSRKDHMCHPHGIMIIEDPAALNKPEKLKKKKKKSKMDRHGNDKSTPKKTCKKRQSSESDIESVIYTIEAVAKGDWGIEKLGDTPRKKVRTSSSGKGSILDAKPPKKKVKSREKKMSKEKSSDTTKESRPPDFISISASKNISGETPEGIKAEPLTPMEDALPPSLSGQAKPEDSDCHRKIETCGSRKSERSCKGALYKTLVSEGMLTSLRANVDRGKRSSGKGNSSDHEGCWNEESWTFSQSGTSGSKKFKKTKPKEDCLLGSAKLDEEFEKKFNSLPQYSPVTFDRKCVPVPRKKKKTGNVSSEPTKTSKGPFQSQKKNLFHKIVSKYKHKKEKPNVPEKGSGDKWSNKQLFLDAIHPTEAIFSEDRNTMEPVHKVKNIPSIFNTPEPTTTQEPLVGSQKRKARKTKITHLVRTADGRVSPAGGTLDDKPKEQLQRSLPKATETDCNDKCSHNTEVGETRSSTPEMPAVSAFFSLAALAEVAAMENVHRGQRSTPLTHDGQPKEMPQAPVLISCADQ
B2: MBD1 (protein, UniProt Q9UIS9 1-605)
chain: MAEDWLDCPALGPGWKRREVFRKSGATCGRSDTYYQSPTGDRIRSKVELTRYLGPACDLTLFDFKQGILCYPAPKAHPVAVASKKRKKPSRPAKTRKRQVGPQSGEVRKEAPRDETKADTDTAPASFPAPGCCENCGISFSGDGTQRQRLKTLCKDCRAQRIAFNREQRMFKRVGCGECAACQVTEDCGACSTCLLQLPHDVASGLFCKCERRRCLRIVERSRGCGVCRGCQTQEDCGHCPICLRPPRPGLRRQWKCVQRRCLRGKHARRKGGCDSKMAARRRPGAQPLPPPPPSQSPEPTEPHPRALAPSPPAEFIYYCVDEDELQPYTNRRQNRKCGACAACLRRMDCGRCDFCCDKPKFGGSNQKRQKCRWRQCLQFAMKRLLPSVWSESEDGAGSPPPYRRRKRPSSARRHHLGPTLKPTLATRTAQPDHTQAPTKQEAGGGFVLPPPGTDLVFLREGASSPVQVPGPVAASTEALLQEAQCSGLSWVVALPQVKQEKADTQDEWTPGTAVLTSPVLVPGCPSKAVDPGLPSVKQEPPDPEEDKEENKDDSASKLAPEEEAGGAGTPVITEIFSLGGTRFRDTAVWLPRSKDLKKPGARKQ
B3: RFC1 (protein, UniProt P35251 1-1148)
chain: MDIRKFFGVIPSGKKLVSETVKKNEKTKSDEETLKAKKGIKEIKVNSSRKEDDFKQKQPSKKKRIIYDSDSESEETLQVKNAKKPPEKLPVSSKPGKISRQDPVTYISETDEEDDFMCKKAASKSKENGRSTNSHLGTSNMKKNEENTKTKNKPLSPIKLTPTSVLDYFGTGSVQRSNKKMVASKRKELSQNTDESGLNDEAIAKQLQLDEDAELERQLHEDEEFARTLAMLDEEPKTKKARKDTEAGETFSSVQANLSKAEKHKYPHKVKTAQVSDERKSYSPRKQSKYESSKESQQHSKSSADKIGEVSSPKASSKLAIMKRKEESSYKEIEPVASKRKENAIKLKGETKTPKKTKSSPAKKESVSPEDSEKKRTNYQAYRSYLNREGPKALGSKEIPKGAENCLEGLIFVITGVLESIERDEAKSLIERYGGKVTGNVSKKTNYLVMGRDSGQSKSDKAAALGTKIIDEDGLLNLIRTMPGKKSKYEIAVETEMKKESKLERTPQKNVQGKRKISPSKKESESKKSRPTSKRDSLAKTIKKETDVFWKSLDFKEQVAEETSGDSKARNLADDSSENKVENLLWVDKYKPTSLKTIIGQQGDQSCANKLLRWLRNWQKSSSEDKKHAAKFGKFSGKDDGSSFKAALLSGPPGVGKTTTASLVCQELGYSYVELNASDTRSKSSLKAIVAESLNNTSIKGFYSNGAASSVSTKHALIMDEVDGMAGNEDRGGIQELIGLIKHTKIPIICMCNDRNHPKIRSLVHYCFDLRFQRPRVEQIKGAMMSIAFKEGLKIPPPAMNEIILGANQDIRQVLHNLSMWCARSKALTYDQAKADSHRAKKDIKMGPFDVARKVFAAGEETAHMSLVDKSDLFFHDYSIAPLFVQENYIHVKPVAAGGDMKKHLMLLSRAADSICDGDLVDSQIRSKQNWSLLPAQAIYASVLPGELMRGYMTQFPTFPSWLGKHSSTGKHDRIVQDLALHMSLRTYSSKRTVNMDYLSLLRDALVQPLTSQGVDGVQDVVALMDTYYLMKEDFENIMEISSWGGKPSPFSKLDPKVKAAFTRAYNKEAHLTPYSLQAIKASRHSTSPSLDSEYNEELNEDDSQSDEKDQDAIETDAMIKKKTKSSKPSKPEKDKEPRKGKGKSSKK
B4: ZNF574 (protein, UniProt Q6ZN55 1-896)
chain: MTEESEETVLYIEHRYVCSECNQLYGSLEEVLMHQNSHVPQQHFELVGVADPGVTVATDTASGTGLYQTLVQESQYQCLECGQLLMSPSQLLEHQELHLKMMAPQEAVPAEPSPKAPPLSSSTIHYECVDCKALFASQELWLNHRQTHLRATPTKAPAPVVLGSPVVLGPPVGQARVAVEHSYRKAEEGGEGATVPSAAATTTEVVTEVELLLYKCSECSQLFQLPADFLEHQATHFPAPVPESQEPALQQEVQASSPAEVPVSQPDPLPASDHSYELRNGEAIGRDRRGRRARRNNSGEAGGAATQELFCSACDQLFLSPHQLQQHLRSHREGVFKCPLCSRVFPSPSSLDQHLGDHSSESHFLCVDCGLAFGTEALLLAHRRAHTPNPLHSCPCGKTFVNLTKFLYHRRTHGVGGVPLPTTPVPPEEPVIGFPEPAPAETGEPEAPEPPVSEETSAGPAAPGTYRCLLCSREFGKALQLTRHQRFVHRLERRHKCSICGKMFKKKSHVRNHLRTHTGERPFPCPDCSKPFNSPANLARHRLTHTGERPYRCGDCGKAFTQSSTLRQHRLVHAQHFPYRCQECGVRFHRPYRLLMHRYHHTGEYPYKCRECPRSFLLRRLLEVHQLVVHAGRQPHRCPSCGAAFPSSLRLREHRCAAAAAQAPRRFECGTCGKKVGSAARLQAHEAAHAAAGPGEVLAKEPPAPRAPRATRAPVASPAALGSTATASPAAPARRRGLECSECKKLFSTETSLQVHRRIHTGERPYPCPDCGKAFRQSTHLKDHRRLHTGERPFACEVCGKAFAISMRLAEHRRIHTGERPYSCPDCGKSYRSFSNLWKHRKTHQQQHQAAVRQQLAEAEAAVGLAVMETAVEALPLVEAIEIYPLAEAEGVQISG

What follows are molecules tested against 3× hemagglutinin (HA)-tagged Vpr (HIV-1 NL4-3) (HIV-1 (NL4-3)) (UniProt P12520) (assay: affinity purification with mass spectrometry).

Molecule	binding
DDX20 (from UniProt Q9UHI6 1-824)	binds
GEMIN4 (from UniProt P57678 1-1058)	binds
KIF18A (from UniProt Q8NI77 1-898)	binds
MSH6 (from UniProt P52701 1-1360)	binds
SMN1 / SMN2 (from UniProt Q16637 1-294)	binds
ZNF267 (from UniProt Q14586 1-743)	binds
B1	binds
B2	binds
B3	binds
B4	binds

These are yes or no findings as the source states them, for the method shown. Binding seen in cells or lysates may run through a third protein. Here binding means that the protein was enriched with, or labelled near, the bait; the list need not be complete.
